From patent US4764358A, “Radiolabeled dimethyl branched long chain fatty acid for heart imaging” (The United States of America as represented by the United …, priority 1986, dated 1988)
For at least one compound, name, drawing or mass did not settle the structure.

Assay: Myocardial uptake/retention and heart:blood ratio, DMIPP compared with monomethyl BMIPP and IPP

CC(CCCCCCCCCCCCc1ccc([123I])cc1)CC(=O)O (centres unmarked) [BMIPP]
heart-to-blood ratio (time not stated): 3-4/1
mean heart:blood ratios (within 15 min. after injection): 3-4:1
